Experimental data reported in doi:10.1101/2024.11.04.621965.

The chains behind the UniProt entries cited, without tags or fusion partners. Where a name states a change or a piece, a line headed by the entry shows the natural chain unless it says otherwise.
UniProt F4IVI0: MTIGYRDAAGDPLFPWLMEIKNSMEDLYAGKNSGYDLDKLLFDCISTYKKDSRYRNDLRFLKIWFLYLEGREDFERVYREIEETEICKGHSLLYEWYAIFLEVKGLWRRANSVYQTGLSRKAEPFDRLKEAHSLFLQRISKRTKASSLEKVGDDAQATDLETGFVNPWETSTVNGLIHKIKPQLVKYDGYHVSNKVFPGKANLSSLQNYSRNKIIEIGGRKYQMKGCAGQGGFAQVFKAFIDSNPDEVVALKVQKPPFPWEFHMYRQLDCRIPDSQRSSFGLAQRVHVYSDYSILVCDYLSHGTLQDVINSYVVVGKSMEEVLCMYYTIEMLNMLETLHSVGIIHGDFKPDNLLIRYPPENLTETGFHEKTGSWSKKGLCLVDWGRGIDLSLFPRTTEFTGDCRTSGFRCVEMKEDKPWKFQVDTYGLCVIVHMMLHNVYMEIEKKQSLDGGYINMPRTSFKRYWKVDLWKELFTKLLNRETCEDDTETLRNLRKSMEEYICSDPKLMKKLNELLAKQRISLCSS

T1: Arabidopsis CENP-C (Y2H fusion) (Arabidopsis thaliana) (UniProt Q66LG9)
T1 sequence: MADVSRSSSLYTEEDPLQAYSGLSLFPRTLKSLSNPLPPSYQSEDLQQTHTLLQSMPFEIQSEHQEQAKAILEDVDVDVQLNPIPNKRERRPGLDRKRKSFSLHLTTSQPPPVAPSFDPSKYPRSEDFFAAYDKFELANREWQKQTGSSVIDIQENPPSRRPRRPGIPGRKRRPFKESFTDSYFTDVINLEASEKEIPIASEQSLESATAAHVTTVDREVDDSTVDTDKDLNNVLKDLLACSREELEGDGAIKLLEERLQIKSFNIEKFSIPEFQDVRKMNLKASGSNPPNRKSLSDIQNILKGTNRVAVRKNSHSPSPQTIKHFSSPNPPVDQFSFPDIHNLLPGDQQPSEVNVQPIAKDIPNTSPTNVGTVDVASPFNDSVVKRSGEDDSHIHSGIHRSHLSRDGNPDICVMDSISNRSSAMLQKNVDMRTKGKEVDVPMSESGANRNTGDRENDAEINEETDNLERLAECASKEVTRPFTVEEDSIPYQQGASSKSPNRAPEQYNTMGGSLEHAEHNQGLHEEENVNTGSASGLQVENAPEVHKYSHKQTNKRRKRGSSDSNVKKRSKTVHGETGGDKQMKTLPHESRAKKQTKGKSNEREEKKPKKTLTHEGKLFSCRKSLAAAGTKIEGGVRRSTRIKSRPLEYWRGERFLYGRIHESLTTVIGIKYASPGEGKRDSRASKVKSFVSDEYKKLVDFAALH

T2: Arabidopsis MIS12 (Y2H fusion) (Arabidopsis thaliana) (UniProt Q2V0Z5)
T2 sequence: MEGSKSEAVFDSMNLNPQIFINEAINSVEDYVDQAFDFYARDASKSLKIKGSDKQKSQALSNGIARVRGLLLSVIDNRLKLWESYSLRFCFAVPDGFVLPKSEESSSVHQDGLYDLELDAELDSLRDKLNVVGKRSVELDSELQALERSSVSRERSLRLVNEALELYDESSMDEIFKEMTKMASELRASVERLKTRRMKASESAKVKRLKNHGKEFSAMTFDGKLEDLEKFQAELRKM


Columns and labels:
Assay in all cases: two-hybrid
[1] = molecular target: T1, Arabidopsis CENP-C (Y2H fusion) (Arabidopsis thaliana)
[2] = molecular target: T2, Arabidopsis MIS12 (Y2H fusion) (Arabidopsis thaliana)
[3] = molecular target: Arabidopsis KNL1 (Y2H fusion) (Arabidopsis thaliana)
[4] = molecular target: Arabidopsis KNL1, ESD containing region (Y2H fusion) (Arabidopsis thaliana)
[5] = molecular target: Arabidopsis BMF3 (Y2H fusion) (Arabidopsis thaliana) (UniProt Q9FFG4)
[6] = molecular target: Arabidopsis KNL1, CC domain (Y2H fusion) (Arabidopsis thaliana)
[7] = molecular target: Arabidopsis KNL1, region from amino acids 350 to 450 (Y2H fusion) (Arabidopsis thaliana)
[8] = molecular target: Arabidopsis NNF1 (Y2H fusion) (Arabidopsis thaliana)

binding [3]	binding [4]	binding [6]	Molecule	also measured
			Arabidopsis BMF1 (Y2H fusion) (from UniProt F4IVI0)	binding [1]: binds
			Arabidopsis SPC24 (Y2H fusion; paralog not told in the text)	binding [2]: binds
binds	binds		Arabidopsis MAD1 (Y2H fusion) (protein, UniProt Q9LTY1 1-726) MILRTPQPKRLRSDAGESPFPTGATGSGNQLIIYEDSPLPAPAPLQTSHDHSADQHLCTYQCRQMVKADVLDALSTAEKQVEESKTKLQTLNANFTEADAERKHFRDKFLYSEQELAAAKAREKMLQEQLLMEINNSQERYTKELQSCHELEVKLQNEMNLRKKAESSAATAEEKAKLLEDKLTQLSGSVDREKKRLNNDIAQLGKEAKLSVARIGADLERMQCRAQNAETESNLLRSQLEHLKLIFDECLQEKTEVDKKLSSFTSEAASSSDNSVLVKHLQEELKRYEAEVREARKLKSRHLDAELLNVNLLEEQSRRERAESELSKFHDLQLSMEKLENELSSWKSLLNDIPGVSCPDDIVMRFSVLQNEVVQSTMKIGEASTRIKQLEETLEAIQLGRQNAVSEAALAKEKSEALKTDVKRIEVMLTLVTEEKEQLKAVVNELRKSNSEGSVSGAADGALIQGFESSLAKKENYIKDLEQDLNQLKDVNNRQRTEIELLNEKLVDEARRNKSLERDSDRLRSEISLLESKLGHGDYSAANTRVLRMVNTLGVENEAKQTIEALQAELQKTKERLQAVEELKSQSGDAGKLVDSHITGKIAQLKEQNATLEKREERYKTVFADRISVFRRACCELFGYKIVMDEHQRPNGIPVTRFTLQSIYAQSDDEKLEFEYESGNTSILNNEYASQGDIAKQIEIFIRKFNSIPAFTANLTMESFNRRTLY	binding [5]: binds
binds	binds	binds	Arabidopsis NUF2 (Y2H fusion) (protein, UniProt Q8RXJ0 1-440) MSAYEYPRLSRSDIITALKDAQIASVTETDLKTPTSDFVSELYTRILIYLDALDEEEKGQVDFEALEQLENPDHHATSMQAMKLYCKVKDMLEMLDCPLPISFKDLLRPESSRTEFFISALLNYGLYKDSKMDLIRPKAEELGLLDEQRKQCEAKVAQLNAEIGEFDEAVERDLPFVQELEANIEQLNKKILELNNQQMSLRATFQKMREKSTQMDNEISKAEFDLVETVQENANLRSQIVQSPDKLQGALEEKKLVLGETKKAEQSAMVTFQEKAAILEVFEKALKKILKSSSQLQLINEQVTNAKTVEKEFKALKDKLSEDGVAYKSLEAKVVERERIVEQLNESLKQLEKEKAVMFDDWTKQLNELKVEVESRRRELETRQTNVESVVAMVDDNTAKTNQVRQSGEAKVKKLAAKYEEIVKQFHEYTVSFDAFLPSL	
binds			Arabidopsis MPS1 (Y2H fusion) (enzyme, UniProt Q84VX4 1-777) MDREDNLPVQPDKPPKSLVRPILNLETTSSSSSSSSSSPELLRHLQAAFKRHRPLSKMQTTSIGPRRSVAPQRQASRNTRLVTAEGQRSQDVVTLSQSLAANTLTQDTTNNLAITSVAGESASITQPTVSEHFNPSDRQMDFGKSAVTSLESNLDVQRKSQSLIGTSQDMEWDATNQAEASHLDACIGSKHQNLPSVDSEVSLKSEYKDSSSLAKIQGQLGEFPNFLNQPRTRCSAVGSSWATTTLIHSSSAPMLNATTHVSRSYVEADSNANPHAVQSQGNLPSCCPSSKVSNILHPNKDATASEMPASTNDPEVRVKETDTSKQQQITTGLEAPVGSSIYGSDGQANARLPEELHTSVSSQPQKSDKHEKVASSKGPSAPRKRNYDPDLFFKVNGKLYQRLGKIGSGGSSEVHKVISSDCTIYALKKIKLKGRDYATAYGFCQEIGYLKKLKGKTNIIQLIDYEVTDKTLLQEVLNGTMSNKDGRVKEDGFIYMVLEYGEIDLAHMLSQKWREIEGSDRTIDENWLRFYWQQILQAVNTIHEERIVHSDLKPANFLLVRGFLKLIDFGIAKAINSDTTNIQRDSQVGTLSYMSPEAFMCNESDENGNTIKCGRPSDIWSLGCILYQMVYGRTPFADYKTFWAKFKVITDPNHEITYNQLSNPWLIDLMKKCLAWDRNQRWRIPELLQHPFLAPPIPHEPQVKTIKLFSLIAESCGSDDDKANSMISQLEQLLSNPAPLPRNDVLDSRDQNQQLLSRVSELCIQLQDRLQGLEGEN	binding [7]: binds
binds	binds	binds	Arabidopsis MIS12 (Y2H fusion) (protein, UniProt Q2V0Z5 1-238) MEGSKSEAVFDSMNLNPQIFINEAINSVEDYVDQAFDFYARDASKSLKIKGSDKQKSQALSNGIARVRGLLLSVIDNRLKLWESYSLRFCFAVPDGFVLPKSEESSSVHQDGLYDLELDAELDSLRDKLNVVGKRSVELDSELQALERSSVSRERSLRLVNEALELYDESSMDEIFKEMTKMASELRASVERLKTRRMKASESAKVKRLKNHGKEFSAMTFDGKLEDLEKFQAELRKM	binding [8]: binds

These are yes or no findings as the source states them, for the method shown. Binding calls can cover weak binding; strength is not graded here. Where a sequence is shown, tags or fusion partners need not be part of it.
